The values below come from PubChem BioAssay (NCATS).

Several values for one entry are separate records, joined by “and”; a condition that tells them apart may be missing. Equal values may be shown once. Some of the results follow. Shown are side measurements of this screen, not its main read-out; they come without a call. Compounds called inactive in the main read-out are mostly missing here. For part of these data: Potencies come from curve fits of mixed quality, noted in brackets.

Experiment [1] can be described thus: qHTS Assay for Inhibitors of PDE-IV (AID 607). Conditions: HEK293 ACTOne CNG channel cells, membrane potential fluorescence; measured here: parental cell counter-screen. In short, it runs like this: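 The readout is membrane depolarisation from a cAMP-sensing CNG channel, detected with a potential dye at ex 535/em 590. Cells were HEK293-derived (endogenous PDE-IV) at 1000 cells/well, titrated up to 22.9 uM final.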

Experiment [2] can be described thus: qHTS Assay for Lipid Storage Modulators (AID 1519). Conditions: Drosophila S3 cells, BODIPY lipid droplet/cell ratio, laser cytometry, cells loaded with oleic acid. A digest of the protocol: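 Cells seeded at 5,000 per well were treated with compounds over a concentration series and loaded with oleic acid (400 uM, as added). Lipid droplet fluorescence (488 nm excitation, 500-530 nm channel) was read by laser-scanning cytometry and normalized to 20 uM Triacsin C.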
(In general: qHTS replaces the single test concentration by a dilution series.)

Experiment [3] is described as follows: qHTS assay for small molecule antagonists of peroxisome proliferator-activated receptor gamma signaling (AID 588537). Conditions: HEK293 PPARg-UAS-bla, beta-lactamase ratio, antagonist mode; measured here: W460 blue channel. In short, it runs like this:
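HEK293 cells, PPAR-gamma-UAS-bla, 3000/well. Pre-incubation 6-6.5 h, 37 C. Compound titration with rosiglitazone 50 nM final, 16 h. CCF4 dye, 2 h RT, dual-emission fluorescence.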

Experiment [4] can be described thus: qHTS assay for small molecule antagonists of peroxisome proliferator-activated receptor delta signaling (AID 588535).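 Also: cells co-treated with a PPAR-delta agonist as stimulator during compound exposure.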 Conditions: HEK293T PPARd-UAS-bla, beta-lactamase FRET ratio, 18 h; 460 nm channel. A digest of the protocol: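 Compounds tested in titration on PPAR-delta-UAS-bla HEK293T cells grown in charcoal/dextran-stripped serum (2%); beta-lactamase activity read via CCF4 emission at 460 and 530 nm.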

The nature of experiment [5]: qHTS assay for small molecule antagonists of vitamin D receptor signaling (AID 588541). Conditions: HEK293T VDR-UAS-bla, beta-lactamase ratio, antagonist mode; measured here: W460 blue channel (cell viability).
Experiment [6] can be described thus: qHTS assay for small molecule agonists of retinoid X receptor alpha signaling (AID 588544). Conditions: HEK293T RXRa-UAS-bla, beta-lactamase reporter, 18 h; 530 nm emission.
The nature of experiment [7]: qHTS assay for small molecule antagonists of retinoid X receptor alpha signaling (AID 588546).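 Also: cells stimulated with 9-cis-retinoic acid as agonist; % is scaled to controls: 0 for no effect and ±100 for the full control effect.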 Conditions: HEK293T RXRa-UAS-bla, beta-lactamase ratio, antagonist mode; measured here: W530 green channel, cytotoxicity proxy. In short, it runs like this: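 Beta-lactamase reporter inhibition, read as CCF4 fluorescence ratio (ex 405, em 460/530 nm) after 2 h at RT. HEK293T UAS-bla cells, 2500/well, were stimulated with 9-cis-RA at 500 or 100 nM final alongside test compound for 18 h at 37 C.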

[8] abbreviates: measured here: cell count channel max response.
Where [9] appears, read: measured here: cell number channel AC50.
Setting [10] is: measured here: lipid (BODIPY) channel AC50.
[11] abbreviates: measured here: lipid channel max response.

Turning to `Cc1ccc(S(=O)(=O)/C=C\C#N)cc1`, the half-maximal activity concentration (AC50) in experiment [1] was 15.8 µM [rising, partial curve]; in experiment [2] (setting [9]), 8.91 µM [falling, full curve, poor fit]; in experiment [2] (setting [10]), 5.62 µM [falling, full curve]. Also, the figures for the max response in experiment [2] (setting [8]) and in experiment [2] (setting [11]) were -41% and -82.2%, respectively.
As to `Cc1c(C(=O)O)c(O)cc2c1C(=O)c1c(O)c([C@H]3O[C@H](CO)[C@@H](O)[C@H](O)[C@H]3O)c(O)c(O)c1C2=O`, the figures for the max response in experiment [2] (setting [8]) and in experiment [2] (setting [11]) were 28.9% and 12%, respectively. Besides, the AC50 in experiment [2] (setting [9]) was 10 µM [rising, full curve, poor fit]; in experiment [2] (setting [10]) it was 12.6 µM [rising, partial curve, poor fit]; in experiment [3] it was 70.8 µM [rising, single point].
For `CC1(C)CCC(C)(C)c2cc(C(=O)Nc3ccc(C(=O)O)cc3)ccc21`, the max response was 46% in experiment [2] (setting [8]), 51% in experiment [2] (setting [11]), 100% in experiment [4] and -22.1% in experiment [6]. The AC50 in experiment [2] (setting [9]) was 20 µM [rising, partial curve, poor fit]; in experiment [2] (setting [10]) it was 20 µM [rising, partial curve, poor fit]; in experiment [5], 25.1 µM [rising, full curve, poor fit].
In the case of `Cn1cccc1C(=O)N1CCC2(CCCN(c3ccccn3)C2)CC1`, the half-maximal activity concentration (AC50) in experiment [1] is 3.98 µM [rising, partial curve, poor fit]; in experiment [2] (setting [9]), 0.891 µM [rising, full curve]; in experiment [2] (setting [10]), 0.562 µM [rising, full curve, poor fit]. For the same compound, the results for the max response in experiment [2] (setting [8]) and in experiment [2] (setting [11]) were 13.9% and 27.1%, respectively.
Regarding `NC(=O)c1cnccn1`, the max response in experiment [2] (setting [8]) was -0.0576%; in experiment [2] (setting [11]) it was 3.93%; in experiment [4], -25.5%; in experiment [6], 1.27%; in experiment [7], -10.9%. Further, the concentration at half-maximal activity (AC50) in experiment [2] (setting [9]) is 11.2 µM [falling, partial curve, poor fit]; in experiment [2] (setting [10]), 11.2 µM [falling, partial curve, poor fit].
For `COc1ccc(CNc2ncncc2-c2ccc3c(c2)OCO3)c(OC)c1`, the AC50 is 10 µM [rising, partial curve, poor fit] in experiment [1]; 0.562 µM [rising, partial curve] in experiment [2] (setting [9]); 0.562 µM [rising, partial curve] in experiment [2] (setting [10]). For the same compound, the max response in experiment [2] (setting [8]) was found to be 10.5%; in experiment [2] (setting [11]), 19%.
`CCOc1ccc2c(c1)C(C)=CC(C)(C)N2`: the max response was 34.6% in experiment [2] (setting [8]); 44.6% in experiment [2] (setting [11]); 262% and 314% in experiment [4]; 110% and 43.5% in experiment [6]; 122% and 47.6% in experiment [7]. The AC50 in experiment [2] (setting [9]) is 14.1 µM [rising, partial curve, poor fit]; in experiment [2] (setting [10]) it was 15.8 µM [rising, partial curve]; in experiment [3], 44.7 µM [rising, partial curve].
For `O=C1OC(c2ccc(O)cc2)(c2ccc(O)cc2)c2ccccc21`, the max response in experiment [2] (setting [8]) is 36.6%; in experiment [2] (setting [11]) it was 57.5%; in experiment [7] it was 7.42%. Also, the half-maximal activity concentration (AC50) in experiment [2] (setting [9]) is 14.1 µM [rising, single point]; in experiment [2] (setting [10]), 39.8 µM [rising, single point]; in experiment [3], 56.2 µM [falling, partial curve, poor fit].
Take `COc1c(-c2ccccc2)oc2c(ccc3occc32)c1=O`: the AC50 is 15.8 µM [rising, partial curve] in experiment [1]; 0.398 µM [rising, full curve, poor fit] in experiment [2] (setting [9]); 0.282 µM [rising, full curve, poor fit] in experiment [2] (setting [10]). For the same compound, the max response in experiment [2] (setting [8]) is 91.5%; in experiment [2] (setting [11]) it was 128%.
For the compound `CO[C@@]12C[C@@H](COC(=O)c3cncc(Br)c3)CN(C)[C@H]1Cc1cn(C)c3cccc2c13`, the AC50 in experiment [1] is 12.6 µM [rising, partial curve, poor fit]; in experiment [2] (setting [9]), 10 µM [rising, partial curve]; in experiment [2] (setting [10]), 11.2 µM [rising, partial curve]. Moreover, the values for the max response in experiment [2] (setting [8]) and in experiment [2] (setting [11]) were 98.2% and 133%, respectively.
For `COc1cccc(Cn2c(=O)c(C)nc3cnc(Oc4ccccc4)nc32)c1`, the half-maximal activity concentration (AC50) in experiment [1] is 12.6 µM [rising, single point]; in experiment [2] (setting [9]), 3.16 µM [rising, partial curve, poor fit]; in experiment [2] (setting [10]), 2 µM [rising, full curve, poor fit]. The max response in experiment [2] (setting [8]) came to 34.3%; in experiment [2] (setting [11]), 44.8%.
`COc1cccc(Cn2c(=O)c(-c3ccccc3)nc3cnc(OC)nc32)c1`: the AC50 in experiment [1] is 10 µM [falling, partial curve, poor fit]; in experiment [2] (setting [9]), 0.562 µM [rising, full curve]; in experiment [2] (setting [10]), 0.794 µM [rising, full curve]. Moreover, the values for the max response in experiment [2] (setting [8]) and in experiment [2] (setting [11]) were 33.2% and 43.3%, respectively.
In the case of `Cc1cccc(CNc2nc(-c3ccccc3CN(C)C)nc3ccccc23)c1`, the AC50 in experiment [1] is 10 µM [rising, partial curve]; in experiment [2] (setting [9]), 11.2 µM [falling, partial curve]; in experiment [2] (setting [10]), 20 µM [falling, partial curve]. Further, the max response is -40.6% in experiment [2] (setting [8]) and -99.7% in experiment [2] (setting [11]).
Turning to `COc1cccc(Cn2c(=O)c(CCc3ccccc3)nc3cnc(OC)nc32)c1`, the AC50 is 12.6 µM [rising, partial curve] in experiment [1]; 0.0224 µM [rising, full curve, poor fit] in experiment [2] (setting [9]); 0.0251 µM [rising, full curve, poor fit] in experiment [2] (setting [10]). Further, the max response in experiment [2] (setting [8]) worked out at 20.8%; in experiment [2] (setting [11]) it was 28.2%.

As a reminder, the AC50 is the concentration at which the activity in the assay is half-maximal.
